{"source": "patent US9061984B2", "about": "(University of Louisville Research Foundation, Inc., priority 2008, dated 2015)", "key": {"[1]": {"assay": "Toxicity to peritoneal macrophages (Trypan Blue count)", "format": "cell-based", "details": "BALB/C, mouse; Table 8b; read-out: Cytotoxicity Macrophages IC50", "procedure": "Peritoneal macrophages were prepared as follows. Non-inflammatory macrophages (10^6) were collected from each BALB/C mouse. The cells adhered at 37° C. after 2 h under 5% CO2 in a CO2 incubator. The plates were then rinsed two to three times with 0.5 mL of RPMI+buffer MOPS without fetal calf serum to eliminate non-adhering cells. The supernatant on the plates was replaced by fresh medium (RPMI+glutamine+FCS+antibiotics), 0.5 mL of medium per well. To determine the toxicity of the compounds to macrophages, dilutions of compounds were added on a part of the macrophages prepared above. […] The medium was then removed and 1 μL of sterile Trypan Blue was added. Cover glasses N° 1 were left where cells were plated and then the number of macrophages in a microscope was determined with a haemocytometer. All experiments were performed in triplicate."}, "[2]": {"tested_on": "axenic amastigotes of L. amazonensis (strain MHOM/BR/76/LTB-012)", "assay": "microbe, parasite or virus in culture", "details": "Leishmania amazonensis, read-out: IC50 Cytotoxicity Against Amastigotes"}}}
{"compound": "COc1cc(/C=N\\Nc2ncnc3sc4c(c23)CCCC4)ccc1O", "note": "[II-15]", "values": [{"measurement": "IC50 at 48 h", "setting": "[1]", "value": 8.5, "unit": "µM"}, {"measurement": "IC50", "setting": "[2]", "value": 31.4, "unit": "µM"}]}
